Drawing on paper doi:10.1101/2021.06.09.447716, this text covers binding for one substance.

Protein sequences, listed by entry. Tags and fused reporters are not part of them. Residues count along the entry.
UniProt P56817, residues 46-501: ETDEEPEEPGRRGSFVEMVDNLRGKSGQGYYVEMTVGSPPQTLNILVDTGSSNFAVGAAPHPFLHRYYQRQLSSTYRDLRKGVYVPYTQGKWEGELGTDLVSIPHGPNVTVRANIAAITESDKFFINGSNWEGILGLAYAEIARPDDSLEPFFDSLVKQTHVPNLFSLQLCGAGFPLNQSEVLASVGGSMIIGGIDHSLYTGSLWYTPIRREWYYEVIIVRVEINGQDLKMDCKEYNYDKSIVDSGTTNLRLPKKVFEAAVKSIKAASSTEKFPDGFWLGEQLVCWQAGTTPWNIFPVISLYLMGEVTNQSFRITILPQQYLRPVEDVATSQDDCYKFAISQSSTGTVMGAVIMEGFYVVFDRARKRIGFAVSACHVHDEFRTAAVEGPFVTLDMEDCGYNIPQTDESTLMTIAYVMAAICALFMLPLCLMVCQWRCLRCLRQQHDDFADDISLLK

These are yes or no findings as the source states them, for the method shown. Binding seen in cells or lysates may run through a third protein. A result given as binding can be weak or reduced; the word gives no strength.

The assay concerns the target BACE1-GFP (UniProt P56817). Put plainly: co-IP.

In the case of “Bin1-PL (neuronal Bin1-MYC with the LOAD mutation P318L, rs754834233) (from UniProt O08539-1)”, the binding entry is listed as “binds”.
